For 64 molecules, AC50 results are on record in PubChem BioAssay AID493014 (National Center for Advancing Translational Sciences (NCATS), 2011).

The other results are listed elsewhere or left out. Further columns of the screen follow, without active or inactive calls. The list favours compounds with an active or inconclusive main result. Potencies come from curve fits of mixed quality, noted in brackets.

The test in a line: qHTS Assay to Find Inhibitors of Chronic Active B-Cell Receptor Signaling. The settings on record: ABC-DLBCL IkBa-CBG/CBR reporter, luminescence ratio (green luciferase fused to IkBa over red control in TMD8 lymphoma cells), 4 h. The method in brief:
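TMD8 ABC-DLBCL cells carrying doxycycline-inducible green luciferase fused to IkappaBalpha plus unfused red luciferase were exposed to compounds (up to 46 uM) for 4 hrs at 37C. Activity came from the overlap-corrected green/red luminescence ratio.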
Background: qHTS replaces the single test concentration by a dilution series.

[1] abbreviates: measured here: CBR red luminescence, cell number.

In general, AC50 refers to the concentration at which the activity in the assay is half-maximal. With `Cc1cccc(N/C=C/C(=O)c2ccc(Cl)cc2)c1`, the concentration at half-maximal activity (AC50) under setting [1] was 7.08 µM [falling, partial curve].
Same read-out and setting: in the case of `COc1cccc(-c2onc3ccc(C(C)=O)cc23)c1` it was 0.631 µM [falling, full curve, poor fit]; in that of `COc1cc(CCCN2C(N)=NC[C@@H]2Cc2ccccc2)cc(OC)c1OC`, 35.5 µM [rising, single point].
Same read-out and setting: in the case of `Cc1nn(-c2ccccc2)c(C)c1/C=N/NC(=O)c1cnccn1` it was 0.562 µM [rising, full curve, poor fit]; in that of `CCOc1ccccc1C(=O)Nc1cc(Cl)ccc1O`, 29.1 µM [falling, single point].
Regarding `Nc1ccc(S(=O)(=O)N2CCC(Cc3ccccc3)CC2)cc1`, the AC50 under setting [1] is 0.398 µM [rising, partial curve, poor fit].
`O=C(NN1CCOCC1)c1ccc(Cl)cc1`: the AC50 under setting [1] is 32.6 µM [rising, partial curve, poor fit].
Same read-out and setting: in the case of `COC(=O)Cc1c(C)c2ccc(OCC(=O)N3CCC(C)CC3)c(C)c2oc1=O` it was 20 µM [falling, single point]; in that of `CCN(CC)S(=O)(=O)c1ccc(Nc2nc3ccccc3n3nnnc23)cc1`, 0.231 µM [falling, full curve].
On the same count and under the same terms, in the case of `COCC1CCCCN1C(=O)c1ccc2nc(Cc3ccc(OC)c(OC)c3)oc2c1` (stereo not given) it was 35.5 µM [falling, single point]; in that of `COc1ccc(NC(=O)c2oc3ccccc3c2NC(=O)C(C)(C)C)cc1`, 25.9 µM [falling, partial curve].
Still for that read-out and setting: the value for `CCOC(=O)C1=C(C)OC(N)=C(C#N)C1c1ccc(C)o1` (stereo not given) was 0.082 µM [rising, full curve, poor fit].
Turning to `CCO[C@@H]1OC(C(=O)NCc2nc3ccccc3[nH]2)=C[C@H](c2csc3ccccc23)[C@H]1CCCO`, the AC50 under setting [1] was 12.6 µM [falling, single point].
Same read-out and setting: in the case of `CC1(C)Cc2c(C#N)c(NCC3CCCO3)nc(-c3ccco3)c2CO1` (stereo not given) it was 0.411 µM [falling, full curve]; in that of `COc1ccc(/C=C/c2cc(C(=O)O)c3ccccc3n2)cc1`, 1.41 µM [falling, full curve, poor fit].
Same read-out and setting: in the case of `O=C(Nc1ccc(-c2cn3c(n2)SCC3)cc1)c1ccco1` it was 3.55 µM [rising, partial curve]; in that of `CCCC1C(c2ccc(OC)cc2)C(C#N)(C#N)C2(C#N)CC1(N)NC2=O` (stereo not given), 31.6 µM [rising, partial curve, poor fit].
On the same count and under the same terms, the value for `CCc1nnc(SCC(=O)Nc2nccs2)n1CC` was 17.8 µM [falling, partial curve, poor fit]; that for `CSc1cccc(NC(=O)C2CCN(S(C)(=O)=O)CC2)c1` was 0.731 µM [rising, full curve, poor fit]; that for `Cc1ccc(C)c(S(=O)(=O)Nc2ccc(C(=O)N3CCCCC3)cc2)c1` was 35.5 µM [rising, single point].
For the molecule `NC(=O)C(c1ccccc1)c1ccc(C(=O)c2ccccc2)cc1` (stereo not given), under setting [1], the AC50 is 11.2 µM [falling, single point].
Still for that read-out and setting: in the case of `CN1C(=O)/C(=C/C=C2\SCCN2C)SC1=S` it was 5.8 µM [rising, full curve, poor fit]; in that of `C=CCC1(CC=C)CCCN1C(=O)C1CCC(=O)N(CCc2ccc(Cl)cc2)C1` (stereo not given), 17.8 µM [falling, single point].
Still for that read-out and setting: in the case of `CCOC(=O)c1c(-c2ccc(OC)cc2)csc1NC(=O)CNCc1ccco1` it was 1.78 µM [falling, full curve, poor fit]; in that of `O=C(NCc1cccnc1)c1ccc(CS(=O)(=O)c2ccc(Br)cc2)o1`, 18.4 µM [rising, single point].
On the same count and under the same terms, the value for `COc1ccccc1NS(=O)(=O)c1cc(NC(=O)CC(C)(C)C)ccc1N1CCOCC1` was 35.5 µM [rising, single point]; that for `CCN(Cc1ccccc1)C(=O)c1cc2c(=O)oc3ccc(C)cc3c2s1` was 6.51 µM [falling, single point]; that for `COc1cc2oc(=O)cc(-c3ccc(-c4ccc(C#N)cc4)cc3)c2c(OC)c1OC` was 20.6 µM [rising, partial curve, poor fit].
Regarding `CCOc1ccc(-c2cc(CCCC(=O)NCc3ccc(C)cc3)no2)cc1`, the AC50 under setting [1] is 1.3 µM [falling, full curve, poor fit].
On the same count and under the same terms, the value for `COc1ccc(/C=C/C(=O)c2ccc(NC3=NCCCS3)cc2)cc1OC` was 20 µM [falling, partial curve, poor fit]; that for `Cn1cc(SCC(=O)NC2CCCCC2)c2ccccc21` was 17.8 µM [falling, partial curve, poor fit].
Same read-out and setting: the value for `COc1ccc(-c2nnc(SCC(=O)c3cccs3)o2)c(OC)c1` was 11.2 µM [falling, single point]; that for `N#C/C(=N\Nc1ccc(Cl)cc1)C(=O)c1ccsc1` was 31.6 µM [falling, single point].
Still for that read-out and setting: the value for `COCCNC(=O)c1ccc(C2SCC(=O)N2CCc2ccccc2)cc1` (stereo not given) was 25.1 µM [rising, single point]; that for `Cc1ccc(-c2nc(CN(C)Cc3cccc4cnccc34)c(C)o2)s1` was 1.58 µM [rising, partial curve, poor fit]; that for `COc1ccc(OC)c(C2=Nn3c(nnc3-c3cc(OC)c(OC)c(OC)c3)SC2)c1` was 15.8 µM [falling, partial curve].
For the molecule `COc1ccc2[nH]c(=O)c(CN(Cc3ccco3)Cc3nnnn3Cc3ccccc3)cc2c1`, the AC50 under setting [1] was 3.16 µM [falling, single point].
For `N#CC1=C(N)Oc2n[nH]c(-c3cccs3)c2C1c1cccs1` (stereo not given), the AC50 under setting [1] was 17.8 µM [falling, partial curve].
Still for that read-out and setting: the value for `O=C(NNC(=S)NC(=O)c1cccnc1)c1ccccc1` was 35.5 µM [falling, single point]; that for `S=C(NCc1ccco1)Nc1cc(-c2ccccc2)[nH]n1` was 8.91 µM [falling, partial curve, poor fit]; that for `Nc1cc(=O)[nH]c(SCC(=O)NNC(=O)c2ccccc2)n1` was 5.8 µM [falling, partial curve].
On to `COc1ccc(N/C=C/C(=O)c2sc(-c3ccccc3)nc2C)cc1`, for which the AC50 under setting [1] was 0.501 µM [rising, full curve, poor fit].
Same read-out and setting: the value for `CC(C)C(=O)Nc1c(-c2ccc(Cl)cc2)c(=O)c2ccccc2n1C` was 35.5 µM [rising, single point]; that for `CC(C)(C)OC(=O)N[C@@H](Cc1ccccc1)c1nnc(S(=O)(=O)Cc2ccccc2)o1` was 7.94 µM [falling, partial curve]; that for `COc1ccc(OC)c(Nc2nc(-c3sc(NC(=O)CC(C)C)nc3C)cs2)c1` was 3.16 µM [falling, single point].
Turning to `COc1ccccc1-c1cc(N)n(S(=O)(=O)c2ccc(F)c(C)c2)n1`, the AC50 under setting [1] is 8.2 µM [falling, partial curve].
The same measure, in the same setting: in the case of `COc1ccc(NC(=O)Nc2c[nH]c(=O)[nH]c2=O)cc1` it was 8.91 µM [rising, partial curve, poor fit].
On the same count and under the same terms, in the case of `Cc1c(Cl)ccc2c1NC(=O)[C@]21[C@@H]2C(=O)N(Cc3ccccc3)C(=O)[C@@H]2[C@@H]2CCCN21` it was 12.6 µM [falling, partial curve]; in that of `COc1ccc(-c2nc(C#N)c(N3CCCCCC3)o2)cc1`, 3.66 µM [rising, full curve, poor fit]; in that of `Cc1ccnc(NC(=O)c2cccc(S(=O)(=O)N3CCCc4ccccc43)c2)c1`, 29.1 µM [falling, single point].
Still for that read-out and setting: the value for `C=CCOc1ccc(C=NNc2ccc(S(=O)(=O)Nc3ccccc3C(=O)O)cc2[N+](=O)[O-])cc1OC` was 29.1 µM [rising, single point].
As to `NS(=O)(=O)c1ccc(CCNC(=O)CSc2ccc([N+](=O)[O-])cc2)cc1`, the AC50 under setting [1] is 35.5 µM [rising, partial curve, poor fit].
Still for that read-out and setting: in the case of `Cc1c(NC(=O)COC(=O)Cc2ccc(Cl)cc2)c(=O)n(-c2ccccc2)n1C` it was 0.562 µM [falling, partial curve, poor fit]; in that of `CCN1C(=O)c2cccc3c(NC(=O)C(C)(C)C)ccc1c23`, 29.1 µM [falling, single point].
On the same count and under the same terms, in the case of `Cc1nnc(Sc2nc3c(c(=O)[nH]c(=O)n3C)n2CCCc2ccccc2)s1` it was 14.6 µM [falling, partial curve]; in that of `COc1ccc(/C=N/NC(=O)c2nn(-c3ccc(C)c(C)c3)c(=O)c3ccccc23)cc1`, 3.66 µM [rising, partial curve]; in that of `N#Cc1cccc(Nc2ncnc3c2cnn3-c2cccc(Cl)c2)c1`, 2.51 µM [rising, partial curve, poor fit].
The same measure, in the same setting: in the case of `CC(C)NC(=O)c1cc(-c2ccc(Br)cc2)on1` it was 2.82 µM [falling, full curve].
On to `O=C1c2cccc3cccc(c23)C(=O)N1CC1CCN(CC(O)COc2ccc3ccccc3c2)CC1` (stereo not given), for which the AC50 under setting [1] is 12.6 µM [falling, partial curve].
Same read-out and setting: in the case of `COc1cc2c(cc1OC)CN(C(=O)CN1C(=O)NC3(CCCCC3C)C1=O)CC2` (stereo not given) it was 0.00411 µM [rising, full curve, poor fit]; in that of `CC1CCN(c2c(NCC3CCC(C(=O)NCCCc4ccccc4)CC3)c(=O)c2=O)CC1` (stereo not given), 15.8 µM [rising, single point].
Still for that read-out and setting: in the case of `CCOC(=O)c1sc(NC(=O)C2CC(=O)N(c3ccc(OCC)cc3)C2)nc1C` (stereo not given) it was 0.562 µM [falling, full curve, poor fit].
Turning to `O=C(NC(=S)NC1CCCCC1)c1ccccc1[N+](=O)[O-]`, under setting [1], the AC50 is 7.94 µM [falling, partial curve, poor fit].
On to `CCC1=Nc2cc(C(=O)NCc3ccccc3Cl)ccc2Sc2ccc(C)cc21`, for which the AC50 was 3.98 µM [rising, full curve, poor fit] under setting [1] and 7.08 µM [falling, partial curve] (measured here: IkBa-CBG green luminescence).
